Some entries share one result that the patent states for a list of compounds.
Assay: Circular dichroism, α-helical content
Type: physicochemical
Conditions: pH 7 aqueous solution at 21° C.
Experimental: The α-helicity of stapled modified polypeptides was compared to their unmodified counterparts by circular dichroism. CD spectra were obtained on an Aviv spectropolarimeter at 20° C. using the following standard measurement parameters: wavelength, 190-260 nm; step resolution, 0.5 nm; speed, 20 nm/sec; accumulations, 10; response, 1 sec; bandwidth, 1 nm; path length, 0.1 cm. The α-helical content of each peptide was calculated by dividing the mean residue ellipticity [θ]222obs, by the reported [θ]222obs for a model helical peptide (Forood, B., E. J. Feliciano, and K. P. Nambiar, PNAS, 1993. 90(3): p. 838-842; J. Martin Scholtz, Biopolymers, 1991. 31(13): p. 1463-1470; Lawless, M. K., et al., Biochemistry, 1996. 35(42): p. 13697-13708) or using, for example, the Aviv machine using CDNN software developed by Brohm in order to deduce five different secondary structure fractions (helix, parallel and antiparallel beta-sheet, beta-turn and random coil). Protein Engineering, 1992. […]
In order to evaluate secondary structure improvements of hydrocarbon-stapled peptides, we record and analyze circular dichroism (CD) spectra on an Aviv Biomedical spectrometer (model 410), as described above. […] After conversion to mean residue ellipticity, percent α-helicity can be calculated using the equation, % helicity=100×[θ]222/^max[θ]222, where ^max[θ]222=−40,000×[1−(2.5/number of amino acid residues)]. […]

In the case of enfuvirtide, the α-helicity is reported as “less than 20%”.

From patent publication US10273290B2, “Hydrocarbon double-stapled stabilized HIV-1 GP41 heptad repeat domain peptides” (DANA-FARBER CANCER INSTITUTE, INC., priority 2009, dated 2019)
